Results taken from PubChem BioAssay AID1439 (NMMLSC, 2008).
Screen size: about 220,000 compounds; about 770 (0.35%) were called active. Inconclusive means that the source gave no clear call. Such entries were picked first, then a sample of the others. Rule as the data show it: active = binding response below about 49% or above about 150%; inconclusive = no clear call, values can overlap the other calls; inactive = in between.

Chains of the proteins cited; added tags and fusions are not shown.
UniProt P09471, whole entry, looked up: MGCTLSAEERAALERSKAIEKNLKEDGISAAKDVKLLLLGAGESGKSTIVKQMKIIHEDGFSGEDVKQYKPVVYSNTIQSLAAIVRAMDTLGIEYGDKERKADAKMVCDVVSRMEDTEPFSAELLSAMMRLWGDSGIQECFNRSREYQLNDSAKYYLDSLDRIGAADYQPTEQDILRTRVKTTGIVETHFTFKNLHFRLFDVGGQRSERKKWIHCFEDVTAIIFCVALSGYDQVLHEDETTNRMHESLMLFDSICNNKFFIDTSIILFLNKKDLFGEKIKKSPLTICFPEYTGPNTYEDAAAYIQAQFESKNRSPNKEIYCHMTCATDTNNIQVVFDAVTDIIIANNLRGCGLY

Target: Guanine nucleotide-binding protein G(o) subunit alpha (Homo sapiens) (UniProt P09471)
Test: RGS7-Galphao binding modulators, primary screen, biochemical, multiplexed bead flow cytometry (AID 1439);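 also: fluorescent Galphao held in activated GDP-AlF4 state binding bead-coupled RGS7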
Conditions: at 10 µM, actives lie on both sides

SMILES | binding response (% of control)
O=C(CC1NCCNC1=O)Nc1ccccc1 (stereo not drawn) | inconclusive: 120%
COc1cc2c(c(OC)c1OC)C(=O)CC2 | inconclusive: -190%
CCOc1ccsc1C(=O)OC | inconclusive: 104%
Nc1nc(Nc2ccccc2F)nc(NCc2ccccc2)c1[N+](=O)[O-] | inconclusive: 111%
CCC(=O)Nc1sc(Cc2ccc3c(c2)OCO3)c(C)c1C(N)=O | inconclusive: 82.3%
O=C1CN(C(=O)CNCc2cccc(Cl)c2)c2ccccc2N1 | inconclusive: 3.91%
N/C(=N\OC(=O)Nc1ccccc1)c1ncc([N+](=O)[O-])s1 | inconclusive: 110%
Cc1ccc2c(c1)[nH]c1c(=O)n(Cc3ccco3)cnc12 | inconclusive: 102%
Cc1nc(-c2ccc3c(c2)CCC(=O)N3)cs1 | inconclusive: 87%
Cn1c(=O)c2[nH]c(N/N=C(/C#N)C(N)=O)nc2n(C)c1=O | inconclusive: 66%
Cc1ccccc1NC(=O)C1CC(=O)N(Cc2ccccc2)C1 (stereo not drawn) | inconclusive: 99.6%
CC(N)(C(=O)O)c1cccc(OCc2cccc(Cl)c2)c1 (stereo not drawn) | inconclusive: 249%
CC1(C)CC(=O)C(N=Nc2ccc(OC(F)F)cc2)=C(O)C1 | inactive: 92%
Cc1ccc(OCC(=O)O/N=C(\N)c2cccc([N+](=O)[O-])c2)cc1C | inconclusive: 10.1%
CCOC(=O)/C(=C/C1=CC(=C/N(C)C)/C(=O)O1)C(C)=O | inconclusive: -23%
COc1cc(/C=C2\SC(=S)N(N(C)c3ccccc3)C2=O)ccc1O | inconclusive: 110%
CCCCNCC1CCCO1 (stereo not drawn) | inconclusive: 61.2%
COc1ccccc1Oc1c(C)oc2c(CN3CCOCC3)c(O)ccc2c1=O | inconclusive: 94%
O=C(O)c1ccc(Cl)c(NC(=S)NC(=O)c2ccccc2[N+](=O)[O-])c1 | inactive: 97.2%
O=C1c2ccccc2C(=O)N1/N=C/c1ccc(O)c(O)c1O | inconclusive: 52.9%
O=[N+]([O-])c1cccc(-c2nnc3ccccn23)c1 | inconclusive: 98.5%
O=C1N=c2ccccc2=C1c1sc(=S)n(NC(=O)c2ccccc2)c1O | inconclusive: 109%
S=C(NCCCN1CCOCC1)Nc1ccc(-c2nc3ccccc3[nH]2)cc1 | inconclusive: 76.7%
CCOC(=O)NC(=O)c1cn(C(CC)CO)c(=O)[nH]c1=O (stereo not drawn) | inactive: 101%

SMILES | binding response (% of control)
Cc1cc(NC(=O)c2ccco2)ccc1-n1cnnn1 | inactive: 105%
C/C(=N/OCc1ccc(Br)cc1)c1ccccn1 | inconclusive: 96.9%
O=C(CS(=O)(=O)c1c[nH]c2ccccc12)NC1CCCCC1 | inactive: 106%
Cn1nc(-c2ccccc2)c(C(O)c2ccc(Cl)cc2)c1Cl (stereo not drawn) | inactive: 108%
Cc1cc(CNC(=O)c2cc(-c3ccccc3)nc3ccccc23)nn1C | inconclusive: 104%
CCOC(=O)Cc1cc(=O)[nH]c(/N=C(\N)Nc2ccc(OC)cc2)n1 | inconclusive: 318%
OC(CNCc1ccc2c(c1)OCO2)COc1ccc(F)cc1 (stereo not drawn) | inconclusive: 115%
Cc1cc(NC(=O)CCCn2cc([N+](=O)[O-])cn2)n(Cc2ccc(F)cc2)n1 | inconclusive: 94%
COc1cc(OC)c2ccc(=O)oc2c1C(CC(=O)N1CCCC1)c1ccc2c(c1)OCO2 (stereo not drawn) | inconclusive: 122%
CC(=O)c1cccc(NC(=O)C2C3C=CC(C3=C(c3ccccc3)c3ccccc3)C2C(=O)O)c1 (stereo not drawn) | inconclusive: 98.3%
O=C(Nc1nc2ccsc2c(=O)s1)c1ccc(F)cc1Cl | inconclusive: 128%
CCc1ccc2nc(N)sc2c1 | inconclusive: 116%
O=C(CCn1c2c(c3ccccc31)CCCC2)NNC(=O)c1ccccc1C(=O)O | inconclusive: 106%
Cc1ccc(OC/C(=N\O)C(C)(C)C)c([N+](=O)[O-])c1 | inactive: 95.7%
Cc1ccc(N2C(=O)c3ccccc3C2=O)cc1 | inconclusive: 112%
CCC1=C(OC(=O)N(CC)CC)N2C(=O)OC(=NCC3CC3)[C@]2(C)[C@H]2C1=CC[C@H]1C(=O)NC(=O)[C@H]12 | inconclusive: 97%
O=C(NN1CCOCC1)c1cn(-c2ccccc2)nc1-c1cccs1 | inconclusive: 102%
COc1cccc(/C=N/NC(=O)c2ccccc2)c1OS(=O)(=O)c1ccccc1 | inactive: 89%
COc1ccc(NC(=S)N2CCC(c3nc4ccccc4o3)CC2)c(OC)c1 | inactive: 95.1%
CC1(C)CC(=O)c2ccc(OCc3ccc([N+](=O)[O-])cc3)cc2O1 | inconclusive: 84.3%
Cc1cc(C)c(C)c(S(=O)(=O)N2CCN(C(=O)CCC(=O)N3CCOCC3)CC2)c1C | inconclusive: 116%
CC(C)N(Cc1ccccc1)C(=O)c1ccc2nsnc2c1 | inconclusive: 99.1%
O=c1cc(O)nc(-c2ccccc2)s1 | inconclusive: 79%
COc1ccc(CCNC(=O)C2CC3Cn4c(nc5cc(C)c(C)cc54)C3N2C)cc1 (stereo not drawn) | inconclusive: 116%

Ordered by count of non-hydrogen atoms (smallest number first): some entries from above
SMILES | binding response (% of control)
CCc1ccc2nc(N)sc2c1 | inconclusive: 116%
O=c1cc(O)nc(-c2ccccc2)s1 | inconclusive: 79%
C/C(=N/OCc1ccc(Br)cc1)c1ccccn1 | inconclusive: 96.9%
Cc1ccc(OC/C(=N\O)C(C)(C)C)c([N+](=O)[O-])c1 | inactive: 95.7%
Cc1cc(NC(=O)c2ccco2)ccc1-n1cnnn1 | inactive: 105%
O=C(Nc1nc2ccsc2c(=O)s1)c1ccc(F)cc1Cl | inconclusive: 128%
Cn1nc(-c2ccccc2)c(C(O)c2ccc(Cl)cc2)c1Cl (stereo not drawn) | inactive: 108%
OC(CNCc1ccc2c(c1)OCO2)COc1ccc(F)cc1 (stereo not drawn) | inconclusive: 115%
CC1(C)CC(=O)c2ccc(OCc3ccc([N+](=O)[O-])cc3)cc2O1 | inconclusive: 84.3%
CCOC(=O)Cc1cc(=O)[nH]c(/N=C(\N)Nc2ccc(OC)cc2)n1 | inconclusive: 318%
Cc1cc(CNC(=O)c2cc(-c3ccccc3)nc3ccccc23)nn1C | inconclusive: 104%
COc1ccc(NC(=S)N2CCC(c3nc4ccccc4o3)CC2)c(OC)c1 | inactive: 95.1%
COc1cccc(/C=N/NC(=O)c2ccccc2)c1OS(=O)(=O)c1ccccc1 | inactive: 89%
O=C(CCn1c2c(c3ccccc31)CCCC2)NNC(=O)c1ccccc1C(=O)O | inconclusive: 106%
COc1ccc(CCNC(=O)C2CC3Cn4c(nc5cc(C)c(C)cc54)C3N2C)cc1 (stereo not drawn) | inconclusive: 116%
COc1cc(OC)c2ccc(=O)oc2c1C(CC(=O)N1CCCC1)c1ccc2c(c1)OCO2 (stereo not drawn) | inconclusive: 122%
CC(=O)c1cccc(NC(=O)C2C3C=CC(C3=C(c3ccccc3)c3ccccc3)C2C(=O)O)c1 (stereo not drawn) | inconclusive: 98.3%

Later entries

SMILES | binding response (% of control)
Cc1ccc(-c2nnn(CC(=O)Nc3nnc(C(C)C)s3)n2)cc1 | inactive: 104%
Cc1cccc2cc(C#N)c(NCCCNS(=O)(=O)c3ccc(Cl)cc3)nc12 | inconclusive: 105%
COc1ccc(C(=O)[C@H]2[C@H]3C(=O)N(c4ccccc4)C(=O)[C@H]3C3C=CC=NN32)cc1 (stereo partly drawn) | inconclusive: 84%
Cc1csc(Nc2ccc(C(=O)O)cc2)n1 | inconclusive: 9.95%
CCOc1ccccc1NC(=O)C(OC(=O)C1CC1)c1ccccc1 (stereo not drawn) | inconclusive: 70.5%
Cc1cc(C)cc(NS(=O)(=O)c2ccc(NC(=O)C3CCCCC3C(=O)O)cc2)c1 (stereo not drawn) | inactive: 100%
O=C(/C=C/c1cccs1)c1ccc([N+](=O)[O-])cc1 | inconclusive: 131%
COc1cccc(Nc2ncc(C#N)c(N)n2)c1 | inconclusive: 50.4%
O=C(O)Cn1c(COc2ccc(Cl)cc2)nc2ccccc21 | inconclusive: 97.4%
O=C(OCc1nnc(-c2ccccc2)o1)c1cccnc1Cl | inactive: 100%
CCOC(=O)C1=C(O)C(=O)N(c2ccc(S(N)(=O)=O)cc2)C1c1ccc(Br)cc1 (stereo not drawn) | inconclusive: 109%
COc1ccc(/C=N\Nc2ccccc2[N+](=O)[O-])c(C(=O)O)c1OC | inconclusive: 92.8%
CCCOc1ccc(N2C(=O)CC(NCCNc3ccc([N+](=O)[O-])cn3)C2=O)cc1 (stereo not drawn) | inconclusive: 110%
O=C(NNC(=O)C(Cl)Cl)c1cnn(-c2ccccc2)c1C(F)(F)F | inconclusive: 59.5%
N#Cc1ccccc1NC(=O)Nc1ccccc1 | inconclusive: 95.7%
CCOc1c(O)ccc(C2NC(=O)NC(C)=C2C(=O)OC)c1[N+](=O)[O-] (stereo not drawn) | inactive: 104%
Cc1nn(C)c(Cl)c1CN1CCCC(CO)(Cc2cccc(Cl)c2)C1 (stereo not drawn) | inactive: 104%
C=C1SC(=Nc2ccccc2Cl)N(C(=O)c2sc3ccccc3c2Cl)C12CCCCC2 | inconclusive: 53.4%
Cc1ccc(NC(=O)CN(C)C(=O)c2nn(C)c(=O)c3ccccc23)cc1 | inconclusive: 90.4%
N#C/C(=C/c1ccc(F)cc1)c1nnc(NC(=O)c2ccccc2)s1 | inconclusive: 104%
CN(C)C(=O)CNc1n[nH]c(=S)[nH]c1=O | inconclusive: -312%
S=C(NCc1ccco1)N1CCN(C(c2ccccc2)c2ccccc2)CC1 | inactive: 100%
Cc1ccc(CN2CC(C(=O)Nc3cccc(S(=O)(=O)N4CCCCC4)c3)CC2=O)cc1 (stereo not drawn) | inactive: 97.9%
Cc1ccc(S(=O)(=O)NNC(=S)Nc2cccc(C)c2C)cc1 | inconclusive: 96%

Another view of some results above:
SMILES	binding response (% of control)
CCOc1c(O)ccc(C2NC(=O)NC(C)=C2C(=O)OC)c1[N+](=O)[O-] (stereo not drawn)	inactive: 104%
Cc1nn(C)c(Cl)c1CN1CCCC(CO)(Cc2cccc(Cl)c2)C1 (stereo not drawn)	inactive: 104%

Additional records.

SMILES | binding response (% of control)
Cc1occc1C(=O)Nc1cccc(C(F)(F)F)c1 | inactive: 104%
CCOC(=O)C1=NNC2(CC(=O)N(c3cc(C)cc(C)c3)C2=O)C1 (stereo not drawn) | inconclusive: 115%
CN1CCc2nc3ccc(Cl)cc3c(-c3ccccc3Cl)c2C1 | inactive: 99.6%
c1ccc2c(c1)ncn2Cc1nnc2sc(-c3ccc4c(c3)OCO4)nn12 | inactive: 101%
O=C(NCc1ccccc1)c1cc2ccccc2o1 | inactive: 110%
O=C1NC(c2cc(Cl)cc([N+](=O)[O-])c2O)Nc2ccccc21 (stereo not drawn) | inconclusive: 98.9%
O=C1NCCC/C1=N/Nc1cc(F)ccc1F | inconclusive: 188%
CCOc1ccc(N2C(=O)Nc3ccccc3C2(O)C(=O)NCc2ccc(OC)cc2)cc1 (stereo not drawn) | inconclusive: 117%
O=C(N/N=C/C(Cl)=C\c1ccccc1)c1cccs1 | inconclusive: 98%
CCOc1ccc(-n2c(C)nc3cc(C(=O)NCCN4CCOCC4)ccc32)cc1 | inactive: 96.5%
COc1cc(/C=N/NC(=O)C(=O)NCC2CCCO2)cc(Cl)c1O (stereo not drawn) | inconclusive: 114%
N#CC1=C(N)Oc2ccc3ccc(O)cc3c2C1c1ccsc1 (stereo not drawn) | inactive: 96.2%
Cn1c(N)c(C(=O)CCl)c(=O)n(C)c1=O | inactive: 103%
CC(=O)Nc1nc(C)c(-c2csc(Nc3ccccn3)n2)s1 | inconclusive: 98.9%
O=C(NCc1cccnc1)C(=O)Nc1nc(-c2ccccc2)cs1 | inconclusive: 72.7%
CCOC(=O)N1CCN(CC(=O)N2CCC(C(N)=O)CC2)CC1 | inactive: 93.9%
Clc1ccc(C2=CSC3=NCCN23)cc1Cl | active: -0.38%
CN(C1CCCCC1)S(=O)(=O)c1ccc2[nH]c(=O)oc2c1 | inconclusive: 110%
Cc1c(C(=O)OCC(=O)N(C)C2CCS(=O)(=O)C2)oc2ccc(Br)cc12 (stereo not drawn) | inconclusive: 130%
CN(C)S(=O)(=O)c1cc(NC(=O)CNCCN2CCOCC2)ccc1Cl | inconclusive: 60.3%
Cc1oc(C(C)(C)C)cc1-c1cc(NC(=O)c2ccc([N+](=O)[O-])cc2)n[nH]1 | inconclusive: 159%
